Reference: article PMC9246715, “Bacillus subtilis biofilm matrix components target seed oil bodies to promote growth and anti-fungal resistance in melon” (Nature Microbiology, 2022)
No constants are given. Whether binding was seen depends on the method and setting. Binding can be weak; no strength is given. For some assays here: Binding seen in cells or lysates may run through a third protein.

T1: amyloid protein TasA (B. subtilis) (UniProt P54507)
T1 sequence: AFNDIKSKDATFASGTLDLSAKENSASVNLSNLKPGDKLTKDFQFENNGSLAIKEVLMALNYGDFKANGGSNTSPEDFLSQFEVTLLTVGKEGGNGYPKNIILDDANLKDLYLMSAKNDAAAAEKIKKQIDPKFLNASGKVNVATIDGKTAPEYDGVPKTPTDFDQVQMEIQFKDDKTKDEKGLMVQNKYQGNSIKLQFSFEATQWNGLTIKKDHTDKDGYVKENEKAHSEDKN


Columns and labels:
[1] = target: T1, amyloid protein TasA (B. subtilis); assay: pull-down; purified TasA (bait, 50 µM) incubated with melon seed protein extract at 4 °C overnight, then with nickel-loaded resin (Protino Ni-TED 2000) at 4 °C overnight; elution fractions on SDS-PAGE (CBB), co-eluting band identified by HPLC-ESI-MS/MS; control resin without bait; only the target purified
[2] = target: oleosin 1 from Arabidopsis thaliana (Arabidopsis thaliana); assay: far-Western, overlay or dot blot; purified proteins separated by SDS-PAGE, transferred to PVDF, renatured with decreasing guanidine HCl; membrane incubated with 10 µg purified TasA in protein-binding buffer (100 mM NaCl, 20 mM Tris pH 7.6) at 4 °C overnight; bound TasA detected with anti-TasA antibody; both purified

binding [1]	binding [2]	Molecule
binds		oleosin from melon seeds
	binds	amyloid protein TasA (natural protein, B. subtilis, UniProt P54507 28-261, looked up, TasA, amyloid protein of the extracellular matrix of Bacillus subtilis biofilms; also called purified TasA) AFNDIKSKDATFASGTLDLSAKENSASVNLSNLKPGDKLTKDFQFENNGSLAIKEVLMALNYGDFKANGGSNTSPEDFLSQFEVTLLTVGKEGGNGYPKNIILDDANLKDLYLMSAKNDAAAAEKIKKQIDPKFLNASGKVNVATIDGKTAPEYDGVPKTPTDFDQVQMEIQFKDDKTKDEKGLMVQNKYQGNSIKLQFSFEATQWNGLTIKKDHTDKDGYVKENEKAHSEDKN
